Assay results from publication doi:10.1101/395996.
These are yes or no findings as the source states them, for the method shown. Binding seen in cells or lysates may run through a third protein. These calls come from enrichment with a bait or labelling near it, and not all partners need be listed.

Amino acid sequences for entries named in this document (tags omitted).
UniProt Q03135: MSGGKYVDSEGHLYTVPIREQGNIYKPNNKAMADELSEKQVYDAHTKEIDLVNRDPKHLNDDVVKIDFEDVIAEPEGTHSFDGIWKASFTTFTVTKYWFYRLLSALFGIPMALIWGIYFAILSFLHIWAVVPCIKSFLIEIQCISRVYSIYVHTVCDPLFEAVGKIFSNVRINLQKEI
UniProt O00161: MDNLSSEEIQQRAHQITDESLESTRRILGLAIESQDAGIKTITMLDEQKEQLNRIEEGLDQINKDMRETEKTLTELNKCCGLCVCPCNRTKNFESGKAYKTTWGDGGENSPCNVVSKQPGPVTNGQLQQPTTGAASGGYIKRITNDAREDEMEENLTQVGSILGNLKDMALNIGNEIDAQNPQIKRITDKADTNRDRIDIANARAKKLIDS
UniProt Q9UHB6: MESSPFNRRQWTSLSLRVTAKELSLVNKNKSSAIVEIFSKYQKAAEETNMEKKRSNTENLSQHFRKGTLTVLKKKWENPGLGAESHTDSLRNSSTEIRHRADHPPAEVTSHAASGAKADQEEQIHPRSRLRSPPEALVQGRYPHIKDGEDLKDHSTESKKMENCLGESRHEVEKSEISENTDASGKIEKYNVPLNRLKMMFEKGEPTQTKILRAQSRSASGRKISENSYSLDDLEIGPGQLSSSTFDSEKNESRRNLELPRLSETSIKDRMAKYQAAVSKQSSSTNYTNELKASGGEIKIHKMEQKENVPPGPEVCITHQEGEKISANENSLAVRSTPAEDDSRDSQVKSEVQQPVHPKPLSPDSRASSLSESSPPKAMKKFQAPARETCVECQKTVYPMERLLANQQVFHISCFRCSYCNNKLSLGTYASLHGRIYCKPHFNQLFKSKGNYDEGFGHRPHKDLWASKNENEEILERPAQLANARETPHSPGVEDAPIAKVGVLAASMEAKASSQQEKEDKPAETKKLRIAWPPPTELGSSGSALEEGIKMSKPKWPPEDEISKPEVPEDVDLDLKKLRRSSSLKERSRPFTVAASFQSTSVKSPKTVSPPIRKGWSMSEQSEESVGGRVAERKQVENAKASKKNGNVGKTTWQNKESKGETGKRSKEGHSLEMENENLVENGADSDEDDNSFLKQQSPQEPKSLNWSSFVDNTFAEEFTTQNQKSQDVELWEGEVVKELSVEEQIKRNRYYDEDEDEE
UniProt O43707: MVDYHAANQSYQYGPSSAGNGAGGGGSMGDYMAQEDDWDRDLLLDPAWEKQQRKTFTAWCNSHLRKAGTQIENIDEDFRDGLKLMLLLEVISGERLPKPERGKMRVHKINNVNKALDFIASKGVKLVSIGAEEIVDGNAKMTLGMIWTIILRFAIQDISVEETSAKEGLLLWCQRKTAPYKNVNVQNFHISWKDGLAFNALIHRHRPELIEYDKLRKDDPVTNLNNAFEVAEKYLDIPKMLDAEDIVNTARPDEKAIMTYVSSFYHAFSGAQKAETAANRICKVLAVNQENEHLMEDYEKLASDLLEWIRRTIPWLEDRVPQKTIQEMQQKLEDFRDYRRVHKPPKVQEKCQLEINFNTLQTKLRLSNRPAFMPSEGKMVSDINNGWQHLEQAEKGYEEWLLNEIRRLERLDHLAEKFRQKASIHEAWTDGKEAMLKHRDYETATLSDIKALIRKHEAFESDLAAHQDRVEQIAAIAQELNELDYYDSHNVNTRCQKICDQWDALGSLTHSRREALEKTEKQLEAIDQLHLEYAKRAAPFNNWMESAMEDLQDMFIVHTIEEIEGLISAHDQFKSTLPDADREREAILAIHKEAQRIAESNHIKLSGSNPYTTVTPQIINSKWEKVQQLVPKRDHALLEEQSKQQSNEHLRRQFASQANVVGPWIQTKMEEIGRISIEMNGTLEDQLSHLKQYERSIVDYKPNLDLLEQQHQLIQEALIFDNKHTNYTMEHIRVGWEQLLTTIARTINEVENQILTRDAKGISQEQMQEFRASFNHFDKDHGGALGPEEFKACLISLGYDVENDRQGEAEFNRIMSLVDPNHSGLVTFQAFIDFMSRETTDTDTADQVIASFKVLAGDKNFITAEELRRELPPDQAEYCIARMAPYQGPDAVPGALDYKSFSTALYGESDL
UniProt Q15746: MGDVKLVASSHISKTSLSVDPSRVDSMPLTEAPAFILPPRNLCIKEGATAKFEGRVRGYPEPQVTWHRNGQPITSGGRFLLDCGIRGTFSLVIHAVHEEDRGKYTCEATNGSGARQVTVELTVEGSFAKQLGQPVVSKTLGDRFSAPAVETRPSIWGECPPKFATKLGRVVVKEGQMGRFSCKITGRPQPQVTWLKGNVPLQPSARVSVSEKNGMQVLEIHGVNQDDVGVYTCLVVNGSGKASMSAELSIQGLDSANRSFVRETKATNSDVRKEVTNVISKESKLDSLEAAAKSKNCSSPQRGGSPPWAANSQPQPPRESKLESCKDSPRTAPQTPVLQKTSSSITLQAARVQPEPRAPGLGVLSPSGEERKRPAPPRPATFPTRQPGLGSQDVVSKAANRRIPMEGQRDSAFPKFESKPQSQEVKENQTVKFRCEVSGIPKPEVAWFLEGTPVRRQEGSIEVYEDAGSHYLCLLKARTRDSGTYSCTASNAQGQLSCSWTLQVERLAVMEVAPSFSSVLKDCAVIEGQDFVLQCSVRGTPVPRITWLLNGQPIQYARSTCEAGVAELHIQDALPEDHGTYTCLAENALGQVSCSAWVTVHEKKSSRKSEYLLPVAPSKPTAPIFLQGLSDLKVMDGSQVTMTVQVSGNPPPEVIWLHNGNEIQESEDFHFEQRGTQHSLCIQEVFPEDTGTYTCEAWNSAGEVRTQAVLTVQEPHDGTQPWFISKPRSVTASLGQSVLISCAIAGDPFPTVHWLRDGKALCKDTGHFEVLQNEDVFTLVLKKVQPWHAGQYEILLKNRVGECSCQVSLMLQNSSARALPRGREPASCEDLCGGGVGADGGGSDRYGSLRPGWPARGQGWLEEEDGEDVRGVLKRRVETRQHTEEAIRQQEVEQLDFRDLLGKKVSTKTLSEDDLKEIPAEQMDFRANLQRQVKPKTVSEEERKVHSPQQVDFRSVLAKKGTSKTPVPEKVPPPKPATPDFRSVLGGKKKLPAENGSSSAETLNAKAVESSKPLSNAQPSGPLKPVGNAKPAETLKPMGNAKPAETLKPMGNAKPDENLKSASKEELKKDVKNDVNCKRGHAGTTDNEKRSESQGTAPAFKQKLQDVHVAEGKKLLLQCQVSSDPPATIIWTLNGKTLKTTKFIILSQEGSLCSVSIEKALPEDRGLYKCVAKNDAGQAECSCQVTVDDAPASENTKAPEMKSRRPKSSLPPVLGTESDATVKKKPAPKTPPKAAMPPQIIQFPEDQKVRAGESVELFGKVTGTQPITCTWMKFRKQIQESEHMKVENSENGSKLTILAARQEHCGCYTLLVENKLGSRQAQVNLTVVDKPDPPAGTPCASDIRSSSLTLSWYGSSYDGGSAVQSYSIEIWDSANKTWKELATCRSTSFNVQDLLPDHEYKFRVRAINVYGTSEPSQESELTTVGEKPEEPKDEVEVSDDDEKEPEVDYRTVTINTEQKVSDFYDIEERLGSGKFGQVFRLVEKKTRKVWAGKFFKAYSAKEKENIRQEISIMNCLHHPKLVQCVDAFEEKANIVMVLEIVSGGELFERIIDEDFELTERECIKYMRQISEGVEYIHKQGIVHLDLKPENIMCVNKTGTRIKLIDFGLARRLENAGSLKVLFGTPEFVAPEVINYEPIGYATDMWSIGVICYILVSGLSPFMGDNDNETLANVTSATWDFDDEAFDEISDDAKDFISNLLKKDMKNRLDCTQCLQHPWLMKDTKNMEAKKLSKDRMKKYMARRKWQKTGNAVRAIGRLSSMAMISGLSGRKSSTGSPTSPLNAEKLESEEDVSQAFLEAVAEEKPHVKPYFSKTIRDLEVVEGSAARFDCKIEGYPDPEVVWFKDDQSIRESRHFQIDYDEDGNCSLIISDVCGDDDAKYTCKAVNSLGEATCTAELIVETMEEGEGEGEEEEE
UniProt O43795: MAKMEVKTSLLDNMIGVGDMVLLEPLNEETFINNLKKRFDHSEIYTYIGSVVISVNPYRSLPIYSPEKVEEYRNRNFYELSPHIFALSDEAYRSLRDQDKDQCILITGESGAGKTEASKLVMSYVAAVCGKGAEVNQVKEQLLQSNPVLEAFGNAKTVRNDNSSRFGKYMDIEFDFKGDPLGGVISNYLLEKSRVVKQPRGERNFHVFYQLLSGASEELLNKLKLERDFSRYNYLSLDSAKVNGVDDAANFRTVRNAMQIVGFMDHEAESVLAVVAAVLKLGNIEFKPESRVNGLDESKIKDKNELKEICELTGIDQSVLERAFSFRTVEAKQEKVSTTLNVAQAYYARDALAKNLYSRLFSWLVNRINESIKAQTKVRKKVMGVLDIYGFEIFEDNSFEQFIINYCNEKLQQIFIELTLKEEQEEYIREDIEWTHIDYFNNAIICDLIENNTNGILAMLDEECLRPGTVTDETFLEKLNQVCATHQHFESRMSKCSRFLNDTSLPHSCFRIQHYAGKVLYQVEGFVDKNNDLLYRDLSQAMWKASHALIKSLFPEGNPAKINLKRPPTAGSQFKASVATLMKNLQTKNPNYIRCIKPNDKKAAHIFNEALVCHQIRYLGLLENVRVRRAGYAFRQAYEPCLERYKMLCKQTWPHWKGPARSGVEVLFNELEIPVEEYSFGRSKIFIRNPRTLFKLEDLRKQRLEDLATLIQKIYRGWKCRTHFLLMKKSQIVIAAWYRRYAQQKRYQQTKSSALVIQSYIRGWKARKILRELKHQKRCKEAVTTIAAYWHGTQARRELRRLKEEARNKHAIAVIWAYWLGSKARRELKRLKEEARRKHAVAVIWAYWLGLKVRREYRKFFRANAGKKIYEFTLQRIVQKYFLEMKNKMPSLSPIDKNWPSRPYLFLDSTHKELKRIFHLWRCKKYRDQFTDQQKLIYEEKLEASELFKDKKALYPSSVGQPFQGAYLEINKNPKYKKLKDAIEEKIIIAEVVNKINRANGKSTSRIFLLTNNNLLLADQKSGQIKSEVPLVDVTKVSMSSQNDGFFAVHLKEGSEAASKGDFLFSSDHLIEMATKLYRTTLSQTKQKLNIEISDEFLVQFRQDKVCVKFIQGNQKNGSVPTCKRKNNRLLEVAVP
UniProt Q9NVI1: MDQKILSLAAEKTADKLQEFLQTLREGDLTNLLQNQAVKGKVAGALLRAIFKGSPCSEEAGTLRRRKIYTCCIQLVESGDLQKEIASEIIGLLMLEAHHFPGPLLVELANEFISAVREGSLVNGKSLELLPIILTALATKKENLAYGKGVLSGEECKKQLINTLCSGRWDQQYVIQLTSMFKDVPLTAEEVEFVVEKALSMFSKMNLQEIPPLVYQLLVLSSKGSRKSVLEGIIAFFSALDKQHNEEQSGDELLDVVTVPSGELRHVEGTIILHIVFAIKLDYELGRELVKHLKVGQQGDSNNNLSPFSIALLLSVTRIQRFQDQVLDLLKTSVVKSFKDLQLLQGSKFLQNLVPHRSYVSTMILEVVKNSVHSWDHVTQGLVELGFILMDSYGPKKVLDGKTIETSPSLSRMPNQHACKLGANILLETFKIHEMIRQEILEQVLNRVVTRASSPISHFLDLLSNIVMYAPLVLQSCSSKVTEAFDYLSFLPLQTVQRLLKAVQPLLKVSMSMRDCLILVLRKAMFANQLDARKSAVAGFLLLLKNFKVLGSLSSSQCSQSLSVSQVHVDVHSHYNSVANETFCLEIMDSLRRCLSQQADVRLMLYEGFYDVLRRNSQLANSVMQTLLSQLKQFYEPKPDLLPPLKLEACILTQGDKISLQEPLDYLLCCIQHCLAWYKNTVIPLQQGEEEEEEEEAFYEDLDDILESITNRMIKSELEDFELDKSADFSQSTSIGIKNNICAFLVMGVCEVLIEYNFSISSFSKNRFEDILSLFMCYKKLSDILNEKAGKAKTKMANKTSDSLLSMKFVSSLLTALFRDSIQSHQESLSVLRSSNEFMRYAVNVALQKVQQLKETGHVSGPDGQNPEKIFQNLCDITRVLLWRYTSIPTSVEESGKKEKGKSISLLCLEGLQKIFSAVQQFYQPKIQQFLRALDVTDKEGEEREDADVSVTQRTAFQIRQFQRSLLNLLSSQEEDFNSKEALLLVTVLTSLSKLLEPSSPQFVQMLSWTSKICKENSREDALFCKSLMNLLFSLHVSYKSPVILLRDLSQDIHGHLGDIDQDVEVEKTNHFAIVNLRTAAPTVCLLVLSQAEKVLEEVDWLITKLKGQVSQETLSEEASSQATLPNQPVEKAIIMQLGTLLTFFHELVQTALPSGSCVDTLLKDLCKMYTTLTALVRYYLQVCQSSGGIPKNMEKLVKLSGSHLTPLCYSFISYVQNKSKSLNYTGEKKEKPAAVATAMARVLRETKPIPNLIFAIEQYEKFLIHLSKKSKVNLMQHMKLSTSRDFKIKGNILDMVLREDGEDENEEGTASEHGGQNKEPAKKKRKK

T1: TAP-SEPT9_i1 (human) (UniProt Q9UHD8)
T1 sequence: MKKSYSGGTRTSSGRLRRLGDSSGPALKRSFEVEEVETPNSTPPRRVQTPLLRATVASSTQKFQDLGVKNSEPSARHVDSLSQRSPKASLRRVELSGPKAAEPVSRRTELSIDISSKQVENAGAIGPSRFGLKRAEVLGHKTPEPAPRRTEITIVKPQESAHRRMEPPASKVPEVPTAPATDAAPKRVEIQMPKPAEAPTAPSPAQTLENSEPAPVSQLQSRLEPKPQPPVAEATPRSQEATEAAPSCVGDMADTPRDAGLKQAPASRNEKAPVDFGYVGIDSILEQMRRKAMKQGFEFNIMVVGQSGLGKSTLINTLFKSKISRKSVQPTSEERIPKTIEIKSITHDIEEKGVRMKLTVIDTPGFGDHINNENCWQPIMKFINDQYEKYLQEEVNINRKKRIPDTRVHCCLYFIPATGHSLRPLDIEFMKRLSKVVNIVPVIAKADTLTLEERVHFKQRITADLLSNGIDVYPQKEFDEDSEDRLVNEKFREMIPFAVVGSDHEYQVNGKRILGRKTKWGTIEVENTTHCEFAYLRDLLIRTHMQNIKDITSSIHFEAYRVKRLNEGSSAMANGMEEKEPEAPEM

B1: RRAS (protein, UniProt P10301 1-218)
chain: MSSGAASGTGRGRPRGGGPGPGDPPPSETHKLVVVGGGGVGKSALTIQFIQSYFVSDYDPTIEDSYTKICSVDGIPARLDILDTAGQEEFGAMREQYMRAGHGFLLVFAINDRQSFNEVGKLFTQILRVKDRDDFPVVLVGNKADLESQRQVPRSEASAFGASHHVAYFEASAKLRLNVDEAFEQLVRAVRKYQEQELPPSPPSAPRKKGGGCPCVLL
B2: SEPT8 (protein, UniProt Q92599 1-483)
chain: MAATDLERFSNAEPEPRSLSLGGHVGFDSLPDQLVSKSVTQGFSFNILCVGETGIGKSTLMNTLFNTTFETEEASHHEACVRLRPQTYDLQESNVQLKLTIVDAVGFGDQINKDESYRPIVDYIDAQFENYLQEELKIRRSLFDYHDTRIHVCLYFITPTGHSLKSLDLVTMKKLDSKVNIIPIIAKADTISKSELHKFKIKIMGELVSNGVQIYQFPTDDEAVAEINAVMNAHLPFAVVGSTEEVKVGNKLVRARQYPWGVVQVENENHCDFVKLREMLIRVNMEDLREQTHSRHYELYRRCKLEEMGFQDSDGDSQPFSLQETYEAKRKEFLSELQRKEEEMRQMFVNKVKETELELKEKERELHEKFEHLKRVHQEEKRKVEEKRRELEEETNAFNRRKAAVEALQSQALHATSQQPLRKDKDKKNRSDIGAHQPGMSLSSSKVMMTKASVEPLNCSSWWPAIQCCSCLVRDATWREGFL
B3: SEPT11 (protein, UniProt Q9NVA2 1-429)
chain: MAVAVGRPSNEELRNLSLSGHVGFDSLPDQLVNKSTSQGFCFNILCVGETGIGKSTLMDTLFNTKFESDPATHNEPGVRLKARSYELQESNVRLKLTIVDTVGFGDQINKDDSYKPIVEYIDAQFEAYLQEELKIKRSLFNYHDTRIHACLYFIAPTGHSLKSLDLVTMKKLDSKVNIIPIIAKADTIAKNELHKFKSKIMSELVSNGVQIYQFPTDEETVAEINATMSVHLPFAVVGSTEEVKIGNKMAKARQYPWGVVQVENENHCDFVKLREMLIRVNMEDLREQTHTRHYELYRRCKLEEMGFKDTDPDSKPFSLQETYEAKRNEFLGELQKKEEEMRQMFVMRVKEKEAELKEAEKELHEKFDLLKRTHQEEKKKVEDKKKELEEEVNNFQKKKAAAQLLQSQAQQSGAQQTKKDKDKKNASFT

biological target: T1, TAP-SEPT9_i1 (human); assay: affinity purification with mass spectrometry

binding, binds:
CAV1 (from UniProt Q03135 1-178)
SNAP23 (from UniProt O00161 1-211)
ZNF185 (from UniProt O15231 1-689)
EPLIN (from UniProt Q9UHB6 1-759)
ACTN4 (from UniProt O43707 1-911)
MYLK (from UniProt Q15746 1-1914)
MYO1B (from UniProt O43795 1-1136)
FANCI (from UniProt Q9NVI1 1-1328)
MYH10 (from UniProt P35580 1-1976)

biological target: T1, TAP-SEPT9_i1 (human); assay: affinity purification with mass spectrometry; remark: another data set of the same source

binding, binds:
B1
B2
B3
